Test in data set [1]: not given
This is another data set of the same source.

Where [2] appears, read: carbonate 1 %, feed isobutyric acid 1 g/L.
[3] abbreviates: carbonate 1 %, feed isobutyric acid 3 g/L.
Setting [4] is: carbonate 1 %, feed isobutyric acid 10 g/L.
Where [5] appears, read: carbonate 3 %, feed isobutyric acid 1 g/L.
Setting [6] is: carbonate 3 %, feed isobutyric acid 3 g/L.
Where [7] appears, read: carbonate 3 %, feed isobutyric acid 10 g/L.
Where [8] appears, read: carbonate 10 %, feed isobutyric acid 1 g/L.
[9] abbreviates: carbonate 10 %, feed isobutyric acid 3 g/L.
[10] abbreviates: carbonate 10 %, feed isobutyric acid 10 g/L.

Read-outs that look alike come from different tables or passages of the source.

As to `N` [ammonium hydroxide], the “isobutyric acid in organic portion of the titrated distillate” value (Example 1a distillate titrated with 5 wt % NH3 solution until aqueous portion pH 9) was 0.1 wt %. In addition, for the setting “solution titrated with 5 wt % NH3 solution to pH 8 before distillation”, the “isobutyric acid in organic portion of the distillate” value is recorded as “no detectable isobutyric acid”.

Consider `O=C([O-])[O-].[Na+].[Na+]` [Sodium Carbonate, sodium carbonate], for which the “isobutyric acid concentration (total acid titration)” value (shortened to “isobutyric acid concentration”) in data set [1] (setting [2]) is 0.03 g/L; in data set [1] (setting [3]), 1.2 g/L; in data set [1] (setting [4]), 8.5 g/L; in data set [1] (setting [5]), 0 g/L; in data set [1] (setting [6]) it was 0.2 g/L; in data set [1] (setting [7]), 5.8 g/L. For the same molecule, the figures for the “isobutyric acid concentration” value in data set [1] (setting [8]), in data set [1] (setting [9]) and in data set [1] (setting [10]) were 0 g/L, 0 g/L and 0.5 g/L, respectively.

For `O=C([O-])[O-].[K+].[K+]` [Potassium Carbonate, potassium carbonate], the “isobutyric acid concentration” value amounted to 0 g/L in data set [1] (setting [2]); 1.8 g/L in data set [1] (setting [3]); 9.1 g/L in data set [1] (setting [4]); 0 g/L in data set [1] (setting [5]); 0.4 g/L in data set [1] (setting [6]); 6.7 g/L in data set [1] (setting [7]). Besides, the “isobutyric acid concentration” value is recorded as 0 g/L in data set [1] (setting [8]), 0 g/L in data set [1] (setting [9]) and 1.4 g/L in data set [1] (setting [10]).

The values above are taken from patent US20140142352A1, “BUTANOL PURIFICATION” (BUTAMAX ADVANCED BIOFUELS LLC, priority 2012, published 2014).
